Out of some 220,000 compounds screened, about 2,400 (1.1%) were called active. The inconclusive results got no clear call from the source; some entries with a clear call stand among them for comparison. The call rests on the fitted dose curve; in most records, active means well fitted inhibition curve with a large enough effect; inconclusive means small, poorly fitted or top-dose-only effect, or effect the other way; inactive means no such curve, though single readings can be large or run the other way. Potencies beside an inconclusive call are fits to weak or partial responses and may not hold up.
Assay: qHTS Multiplex Assay to Identify Dual Action Probes in a Cell Model of Huntington: Aggregate Formation (GFP); further: nearly all actives have a fitted effect of over 60% in size
Conditions: PC12 HttQ103-GFP aggregates, Acumen cytometry, 40 h; activity change, negative = inhibition: at 46.1 µM (top of the series) unless noted
In short: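 PC12 cells stably carrying ecdysone-inducible HTT exon 1 Q103–GFP were induced with tebufenozide (100 nM final) and treated with library compounds in titration. GFP aggregates in lysates were counted by laser scanning cytometry.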
On the % scale 0 is the no-effect control and ±100 the full control effect; potency means the concentration at half of the fitted maximal effect.

SMILES | Potency | activity change, negative = inhibition
COc1ccc(N2C(=O)CC(N3CCC(c4nc5ccccc5[nH]4)CC3)C2=O)cc1 (stereo unspecified) | inconclusive: 10 µM [activator, partial curve] | 
Cn1cnnc1Sc1ccc(C(=O)OCC(=O)Nc2cc(Cl)cc(Cl)c2)cc1[N+](=O)[O-] | inactive | 
CCOC(=O)c1c(C)nc2c(c1C)/C(=N/O)CC(C)(C)C2 | inconclusive: 12.6 µM [inhibitor, partial curve] | 
CCN1CCN(c2ccc(NC(=O)c3cccc(OCc4ccccc4)c3)cc2)CC1 | inconclusive: 22.4 µM [inhibitor, single point] | 
O=C(CSc1nnnn1C1CCCCC1)N1CCN(C(=O)c2ccco2)CC1 | inconclusive: 2.82 µM [inhibitor, single point] | 
Clc1cccc(-c2nnc(SC/C=C/c3ccccc3)n2Cc2ccco2)c1 | inconclusive: 20 µM [inhibitor, partial curve] | 
CCCNC(=O)CSc1nc(-c2cccs2)cc(C(F)(F)F)n1 | inactive | 
CCOC(=O)c1ccc(Nc2c(OCC)c(=O)c2=O)cc1 |  | inactive: -24.9% [at 9.22 µM]
O=S(=O)(NCc1cccs1)c1cccc(S(=O)(=O)N2CCCCC2)c1 | inactive | 
COc1cc(/C=N/NC(=O)CCN2CCN(Cc3ccccc3)CC2)cc(OC)c1OC | inactive | 
COc1ccc(-c2noc(N3CCC(C(=O)N4CCN(c5ccccn5)CC4)CC3)n2)cc1 | inconclusive: 35.5 µM [inhibitor, single point] | 
O=C(c1cc([N+](=O)[O-])ccc1N1CCCCC1)N1CCCC1 | inactive | 
O=C(Nc1nc2nccc(-c3ccccc3)n2n1)C(Cl)(Cl)Cl | inconclusive: 5.62 µM [inhibitor, single point] | 
CN(Cc1ccc(OC(F)F)cc1)C(=O)c1ccc2nccnc2c1 | inconclusive: 5.62 µM [inhibitor, single point] | 
Cc1cccc(CSc2nn3c(=O)c(C)nnc3s2)c1 | inconclusive: 35.5 µM [activator, single point] | 
O=C(/C=C/c1ccccc1[N+](=O)[O-])N1CCN(C(=O)c2ccco2)CC1 | inactive | 
CCCCN(CC)S(=O)(=O)c1ccc(C(=O)Nc2nnc(COC)o2)cc1 | inconclusive: 10 µM [inhibitor, partial curve] | 
CC1(C)CC(N2CCCC2)=CC(=[N+]2CCCCC2)C1 | active: 8.91 µM | 
CC1Cc2ccccc2N1C(=S)NC(=O)C1(C)CC1(Cl)Cl (stereo unspecified) | inconclusive: 0.282 µM [activator, partial curve, poor fit] | 
COC(=O)c1cc(N2C(=O)C3C(C2=O)C2(C)C=CC3(C)O2)ccc1Cl (stereo unspecified) | inconclusive: 35.5 µM [inhibitor, single point] | 
C/C(=N\NC(=O)c1cccc(N/N=C(\C)c2cc(O)ccc2O)c1)c1cc(O)ccc1O | inconclusive: 35.5 µM [inhibitor, single point] | 
Cc1cc2cc(CN3C(=O)c4ccccc4C3=O)ccc2[nH]1 | inconclusive: 3.55 µM [activator, single point] | 
COC(=O)C(NC(=O)C(C)Oc1ccccc1)C(C)C (stereo unspecified) | inactive | 
C/C(CC1CC(C)(C)OC1=O)=N\NC(N)=S (stereo unspecified) |  | inactive: -7.09% [at 9.22 µM]

SMILES | Potency | activity change, negative = inhibition
CCOC(=O)Cc1ccc(NC(=O)c2cccc([N+](=O)[O-])c2)cc1 | inconclusive: 0.501 µM [activator, partial curve, poor fit] | 
CCOC(=O)c1c(C)[nH]c(C)c1C(=O)CSc1nc2ccccc2n1CCOC | inconclusive: 5.62 µM [inhibitor, single point] | 
CCN(CC)CCCNC(=S)N1CCn2c(nc3ccccc32)C1 | inactive | 
Cc1ccc(C)c(N2CCN(CCCNC(=O)Cn3cccc3C(=O)c3ccccc3C)CC2)c1 | active: 15.8 µM | 
OC(COC(c1ccc(Cl)cc1)c1ccc(Cl)cc1)CN1CCCC1 (stereo unspecified) | inactive | 
COCC(=O)Nc1ccc(S(=O)(=O)NCCc2ccccc2)cc1 | inactive | 
COc1ccc(-c2noc(CSc3nnc(Cc4ccccc4)n3-c3cccc(C)c3)n2)cc1OC | inconclusive: 22.4 µM [inhibitor, single point] | 
CCOC(=O)N1CCN(c2ccc(C(=O)c3cccc(F)c3)cc2)CC1 | inconclusive: 11.2 µM [inhibitor, single point] | 
Cc1ccc(-c2nnc(N3CCC(C)CC3)c3ccccc23)cc1 | inconclusive: 31.6 µM [inhibitor, single point] | 
O=C(CCCc1nc2ccccc2s1)NCc1cccnc1 | inconclusive: 2.51 µM [activator, partial curve] | 
CCN(CCCNC(=O)COc1cc(=O)n(C)c2ccccc12)c1cccc(C)c1 | inconclusive: 20 µM [activator, partial curve, poor fit] | 
COc1cccc(NC(=O)C2CC(=O)n3cnnc3S2)c1 (stereo unspecified) | inactive | 
Cn1cc(O)nc1NC(=O)Nc1cccc(Cl)c1 | inactive | 
O=C(O)C1CCN(c2ccc(Cl)nn2)CC1 | inconclusive: 0.794 µM [inhibitor, partial curve] | 
Nc1c(C(=O)NCc2ccc3c(c2)OCO3)c2nc3ccccc3nc2n1CCCN1CCOCC1 | inconclusive: 35.5 µM [inhibitor, single point] | 
CC(C)(C)c1ccc(NC(=O)c2ccccc2)c([N+](=O)[O-])c1 | inconclusive: 25.1 µM [inhibitor, single point] | 
C/C=C/c1ccc(OCCOc2cc(C=O)ccc2OC)c(OC)c1 | inconclusive: 17.8 µM [inhibitor, single point] | 
CC1=CC(C)(C)N(C(=O)CSc2nnc(-c3ccc(C)cc3)o2)c2ccc(C)cc21 | inconclusive: 14.1 µM [inhibitor, partial curve] | 
Cc1cc(C(=O)CN2C(=O)CCC2=O)c(C)n1Cc1ccccc1 | inactive | 
O=C(Cc1ccc(Cl)cc1)c1c[nH]c(C(=O)NCc2cccnc2)c1 | active: 17.8 µM | 
O=C(CN1CCN(c2ccccc2F)CC1)Nc1ccc2c(c1)CCC2 | inconclusive: 35.5 µM [inhibitor, single point] | 
CC(=O)Nc1ccccc1NC(=O)CN(C)S(=O)(=O)c1ccc(C)cc1 | inactive | 
CCOC(=O)c1sc(NC(C)=O)c(C(=O)OCC)c1C | inactive | 
Cc1ccc(/C=C/C(=O)Nc2ccc([N+](=O)[O-])c(NC(=O)/C=C/c3ccc(C)o3)c2)o1 | inconclusive: 14.1 µM [activator, single point] | 

SMILES | Potency | activity change, negative = inhibition
CSCc1nc2sc(C(=O)Nc3nc(C)cs3)c(C)c2c(=O)[nH]1 | inconclusive: 0.562 µM [activator, full curve, poor fit] | 
Cc1ccc(OCCCCn2cnc3ccccc32)c(C)c1 | active: 3.16 µM | 
COc1ccc(-c2c3c(=O)n(C)c(=O)n(C)c3cn2C2CCCCC2)cc1 | inconclusive: 35.5 µM [activator, single point] | 
Cc1n[nH]c(C)c1S(=O)(=O)N1CCCC(C(=O)NC2CCCc3ccccc32)C1 (stereo unspecified) | inconclusive: 10 µM [inhibitor, partial curve] | 
O=C(CCN1C(=O)c2ccccc2C1=O)Nc1ccc2c(c1)OCCO2 | inactive | 
COCCCNC(=O)c1ccc(-n2nc(C(F)(F)F)cc2-c2cccs2)cc1 | inconclusive: 11.2 µM [inhibitor, partial curve] | 
Cc1ccc(N=C(NOCc2ccc(Cl)cc2Cl)c2nonc2N)c(C)c1 | inconclusive: 8.91 µM [inhibitor, partial curve] | 
COC1C=CO[C@@]2(C)Oc3c(C)c(O)c4c(O)c(c5c(nc6cc(C)ccn65)c4c3C2=O)NC(=O)/C(C)=C\C=CC(C)C(O)[C@@H](C)C(O)C(C)[C@@H](OC(C)=O)C1C (stereo partly specified) | inactive | 
CC1Cc2ccccc2N1C(=O)COC(=O)C1(c2ccccc2F)CCCC1 (stereo unspecified) | inactive | 
Cc1nc2ccccn2c1C(=O)CSc1cccc(Cl)c1 | inconclusive: 25.1 µM [inhibitor, single point] | 
Cc1cc2cc(CN(Cc3cccs3)C(=S)NCC3CCCO3)c(=O)[nH]c2cc1C (stereo unspecified) | inconclusive: 35.5 µM [inhibitor, single point] | 
COCCCn1c(Cc2ccccc2)nnc1SCC(=O)N1CCCCC1 | inactive | 
Cc1c(Cl)cccc1NC(=O)CN1CCC(C(O)(c2ccccc2)c2ccccc2)CC1 | inconclusive: 35.5 µM [inhibitor, single point] | 
Cc1cc(=O)[nH]c(SCc2cccc(Br)c2)n1 | inactive | 
CC1CCCCN1S(=O)(=O)c1ccc(C(=O)Nc2nnc(-c3cccs3)o2)cc1 (stereo unspecified) | active: 11.2 µM | 
Oc1ccc(Nc2ncnc3scc(-c4ccccc4)c23)cc1 | inconclusive: 1.26 µM [inhibitor, single point] | 
COc1cc(-c2nc3ccccn3c2NCC2CCCO2)ccc1O (stereo unspecified) | inconclusive: 35.5 µM [activator, partial curve, poor fit] | 
COc1cccc(NC(=O)N2CCN(c3ccc(C(F)(F)F)cn3)CC2)c1 | inconclusive: 20 µM [inhibitor, single point] | 
N/C(=N\OC(=O)COc1ccc2ccccc2c1)c1cccnc1 | inconclusive: 3.55 µM [inhibitor, single point] | 
N#C/C(=C\c1c[nH]c2ccccc12)C(N)=O |  | inactive: -19.3% [at 9.22 µM]
COCc1nc2ccccc2n1Cc1ccccc1Br | inconclusive: 35.5 µM [inhibitor, single point] | 
FC(F)(F)c1cccc(NC(=S)NCC2COc3ccccc3O2)c1 (stereo unspecified) | inconclusive: 15.8 µM [inhibitor, single point] | 
O=C(CSc1ncn[nH]1)Nc1nc(-c2ccccc2)ns1 | active: 22.4 µM | 

Whole records, looked up by structure.
`COC1C=CO[C@@]2(C)Oc3c(C)c(O)c4c(O)c(c5c(nc6cc(C)ccn65)c4c3C2=O)NC(=O)/C(C)=C\C=CC(C)C(O)[C@@H](C)C(O)C(C)[C@@H](OC(C)=O)C1C` (stereo partly specified) is entered as Potency: inactive
`CC1Cc2ccccc2N1C(=O)COC(=O)C1(c2ccccc2F)CCCC1` (stereo unspecified) is entered as Potency: inactive

Copied from the listing, 2 compounds:
SMILES | Potency | activity change, negative = inhibition
Cc1cccc(CSc2nn3c(=O)c(C)nnc3s2)c1 | inconclusive: 35.5 µM [activator, single point] | 
O=C(/C=C/c1ccccc1[N+](=O)[O-])N1CCN(C(=O)c2ccco2)CC1 | inactive | 

Reference: PubChem BioAssay AID1688 (National Center for Advancing Translational Sciences (NCATS), 2009)
